Assay results reported in US20090175796A1.
No constants are given. Whether binding was seen depends on the method and setting. Binding can be weak; no strength is given.

Molecular target: cynomolgus 24P4C12 protein (cynomolgus monkey)
Test: FACS on Rat1 cells expressing cynomolgus 24P4C12, 10 ug/ml MAb, anti-human IgG-PE; open histogram Rat1-cynomolgus 24P4C12 cells, solid histogram control neo cells

binding | Binder
binds | Ha5-1(5)1 (antibody, V domains shown) VH: QVQLVESGGGVVQPGRSLRLSCGASGFTFSSYGMHWVRQAPGKGLEWVAVMSYDGSKKYYTDSVKGRFTISRDNSKNTLYLQMNSLRVEDTAVYYCARDGGDYVRYYYYGMDVWGQGTTVTVSS VL: DIQMTQSPSSLSASVGDRVTITCRARQGITYHLAWYQQRPGKVPKLLIYDTSSLQSGVPSRFSGSGSGTDFTLTISSLQPEDVATYYCQRFNSAPLTFGGGTKVEIK
binds | Ha5-1(5)2.1 (antibody, V domains shown) VH: QVQLVESGGGVVQPGRSLRLSCAASGFTFSSYGMHWVRQAPGKGLEWVAVMSYDGSKKFYTDSVKGRFTISRDNSKNTLYLQMNSLRAEDTAVYYCARDGGDYVRYHYYGMDVWGQGTTVTVSS VL: DIQMTQSPSTLSASIGDRVTITCRASQGISYYLAWYQQKPGKIPKLLIYDTSSLQSGVPSRFSGSRSGTDLSLTISSLQPEDVATYYCQRYDSAPLTFGGGTKVEIK
